# Experiment: Lipid analysis of protein-bound fatty acids by mass spectrometry and gas chromatography
Molecule,"saturated fatty acids (SUFAs) bound, mean proportion [%]","monounsaturated fatty acids (MUFAs) bound, compared to OVA (P=0.0042) [fold]","monounsaturated fatty acids (MUFAs) bound, compared to nAFP (P=0.0318) [fold]"
"tAFP: tumor-derived alpha fetoprotein, SEQ ID NO: 1; commercially available (Bio-Rad) (protein, listed as Homo sapiens) MKWVESIFLIFLLNFTESRTLHRNEYGIASILDSYQCTAEISLADLATIFFAQFVQEATYKEVSKMVKDALTAIEKPTGDEQSSGCLENQLPAFLEELCHEKEILEKYGHSDCCSQSEEGRHNCFLAHKKPTPASIPLFQVPEPVTSCEAYEEDRETFMNKFIYEIARRHPFLYAPTILLWAARYDKIIPSCCKAENAVECFQTKAATVTKELRESSLLNQHACAVMKNFGTRTFQAITVTKLSQKFTKVNFTEIQKLVLDVAHVHEHCCRGDVLDCLQDGEKIMSYICSQQDTLSNKITECCKLTTLERGQCIIHAENDEKPEGLSPNLNRFLGDRDFNQFSSGEKNIFLASFVHEYSRRHPQLAVSVILRVAKGYQELLEKCFQTENPLECQDKGEEELQKYIQESQALAKRSCGLFQKLGEYYLQNAFLVAYTKKAPQLTSSELMAITRKMAATAATCCQLSEDKLLACGEGAADIIIGHLCIRHEMTPVNPGVGQCCTSSYANRRPCFSSLVVDETYVPPAFSDDKFIFHKDLCQAQGVALQTMKQEFLINLVKQKPQITEEQLEAVIADFSGLLEKCCQGQEQEVCFAEEGQKLISKTRAALGV",77,2,4
"nAFP: cord blood-derived normal alpha fetoprotein; commercially available (Cell Sciences) (protein, UniProt P02771 19-609, looked up) Alpha-fetoprotein: RTLHRNEYGIASILDSYQCTAEISLADLATIFFAQFVQEATYKEVSKMVKDALTAIEKPTGDEQSSGCLENQLPAFLEELCHEKEILEKYGHSDCCSQSEEGRHNCFLAHKKPTPASIPLFQVPEPVTSCEAYEEDRETFMNKFIYEIARRHPFLYAPTILLWAARYDKIIPSCCKAENAVECFQTKAATVTKELRESSLLNQHACAVMKNFGTRTFQAITVTKLSQKFTKVNFTEIQKLVLDVAHVHEHCCRGDVLDCLQDGEKIMSYICSQQDTLSNKITECCKLTTLERGQCIIHAENDEKPEGLSPNLNRFLGDRDFNQFSSGEKNIFLASFVHEYSRRHPQLAVSVILRVAKGYQELLEKCFQTENPLECQDKGEEELQKYIQESQALAKRSCGLFQKLGEYYLQNAFLVAYTKKAPQLTSSELMAITRKMAATAATCCQLSEDKLLACGEGAADIIIGHLCIRHEMTPVNPGVGQCCTSSYANRRPCFSSLVVDETYVPPAFSDDKFIFHKDLCQAQGVALQTMKQEFLINLVKQKPQITEEQLEAVIADFSGLLEKCCQGQEQEVCFAEEGQKLISKTRAALGV",82,–,–
"OVA: Ovalbumin, negative control protein (protein, UniProt P01012 2-386, looked up) Ovalbumin: GSIGAASMEFCFDVFKELKVHHANENIFYCPIAIMSALAMVYLGAKDSTRTQINKVVRFDKLPGFGDSIEAQCGTSVNVHSSLRDILNQITKPNDVYSFSLASRLYAEERYPILPEYLQCVKELYRGGLEPINFQTAADQARELINSWVESQTNGIIRNVLQPSSVDSQTAMVLVNAIVFKGLWEKAFKDEDTQAMPFRVTEQESKPVQMMYQIGLFRVASMASEKMKILELPFASGTMSMLVLLPDEVSGLEQLESIINFEKLTEWTSSNVMEERKIKVYLPRMKMEEKYNLTSVLMAMGITDVFSSSANLSGISSAESLKISQAVHAAHAEINEAGREVVGSAEAGVDAASVSEEFRADHPFLFCIKHIATNAVLFFGRCVSP",99,–,–

# — patent US20260166115A1, “POLYUNSATURATED FATTY ACID-BOUND ALPHA FETOPROTEIN PROMOTES IMMUNE SUPPRESSION BY ALTERING HUMAN DENDRITIC CELL METABOLISM” (The Regents of the University of California, priority 2022, published 2026)
